Data taken from publication PMC4520572, “Processive ATP-driven Substrate Disassembly by the N-Ethylmaleimide-sensitive Factor (NSF) Molecular Machine*^([image sbox.jpg])^♦” (The Journal of Biological Chemistry, 2013).

Molecular target: the molecule itself
Experiment: SDS-PAGE of an SDS-stable oligomer; purified protein at 0.5 μg/μl in Laemmli sample buffer with DTT, boiled or not, Any kD denaturing polyacrylamide gel

B1: GCN4 tetramer (tandem repeat of the GCN4-pLI tetramer) (designed binder)
chain: RMKQIEDKLEEILSKLYHIENELARIKKLLGERRMKQIEDKLEEILSKLYHIENELARIKKLLGER
  stoichiometry N: 4
